In EP3329923A1, “THE POTENTIAL OF CRBN-INDEPENDENT IMID RESENSITIZATION BY EPIGENETIC THERAPY” (University of Copenhagen, priority 2016, dated 2018):
For at least one compound, name, drawing or mass did not settle the structure.

Test system: all IMiD-resistant cell lines
Experiment: Resensitization to IMiDs after 48 hours epidrug pretreatment, apoptosis and cell cycle assays
Format: cell-based, human
Settings: epidrug pretreatment for 48 hours, then no treatment vs. 10 µM lenalidomide or pomalidomide; panobinostat as monotherapy or combined with 5-Azacytidine or EPZ-6438

## Cc1[nH]c2ccccc2c1CCNCc1ccc(/C=C/C(=O)NO)cc1 [panobinostat]
  resensitization to IMiDs (IMiD sensitivity): failed to resensitize the cells to IMiDs
